Results are given in words; binding and its absence hold for the method and conditions named. For some assays here: In cells and extracts the contact can be indirect.

By UniProt entry, the sequences of proteins in these tests, tags left out.
UniProt P68106: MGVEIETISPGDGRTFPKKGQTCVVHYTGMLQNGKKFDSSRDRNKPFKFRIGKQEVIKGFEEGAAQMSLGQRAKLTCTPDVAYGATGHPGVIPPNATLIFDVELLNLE

Assay [1] deals with FKBP12.6 (UniProt P68106). In words: SEC; FKBP protein with WDB002 added in excess to CEP250_(11.4), 4 °C overnight; Superdex 200 in 12.5 mM HEPES pH 7.4, 75 mM NaCl; fractions on SDS-PAGE (Fig. S10c); both purified.
Assay [2] deals with N-terminal AVI-tagged and biotinylated FKBP12 (human) (UniProt P62942). In words: condition: with WDB002; up to 25 µM (key of Fig. S7b); SPR; Biacore S200, 25 °C; ~100 RU biotinylated FKBP12 captured on CAP chip and saturated with WDB002 (ABA injection); CEP250 or HSBP1 protein injected over a concentration range with compound; 10 mM HEPES pH 7.4, 150 mM NaCl, 0.05% Surfactant-P20, 2% DMSO; 1:1 Langmuir fit; both purified.

Assay [3] has the same target. As to the kind of experiment: SPR; Biacore S200, 25 °C; AVI-FKBP12 immobilised on an NTA sensor chip and saturated with WDB002 in the buffer; CEP250 injected over a concentration range; both purified.
For assay [4], the target named is FKBP12 as used in the pull-down with the four CEP250 domains (human) (UniProt P62942). In words: pull-down; purified His-tagged CEP250 domains with FKBP12, DMSO or WDB001; blot for FKBP12 (Fig. S2b); both purified.
For assay [5], the target named is N-terminal AVI-tagged and biotinylated FKBP12 (human) (UniProt P62942). As to the kind of experiment: pull-down; in vitro pull-down of recombinantly expressed CEP250 domains with FKBP12–WDB001 (SI Appendix, Fig. S2B).

B1: CEP250_(11.4), residues 2134-2231 of human CEP250 (domain or fragment, UniProt Q9BV73 2134-2231)
chain: MEEQSLKLDSLEPRLQRELERLQAALRQTEAREIEWREKAQDLALSLAQTKASVSSLQEVAMFLQASVLERDSEQQRLQDELELTRRALEKERLHSPG
For the molecule B1, in assay [1], the binding entry is listed as “no binding (tested: with WDB002)”.

B2: CEP250_(29.2) A2194T (domain or fragment, UniProt Q9BV73 1981-2281)
chain: EQHLLEQAELSRSLEASTATLQASLDACQAHSRQLEEALRIQEGEIQDQDLRYQEDVQQLQQALAQRDEELRHQQEREQLLEKSLAQRVQENMIQEKQNLGQEREEEEIRGLHQSVRELQLTLAQKEQEILELRETQQRNNLEALPHSHKTSPMEEQSLKLDSLEPRLQRELERLQAALRQTEAREIEWREKAQDLALSLAQTKASVSSLQEVTMFLQASVLERDSEQQRLQDELELTRRALEKERLHSPGATSTAELGSRGEQGVQLGEVSGVEAEPSPDGMEKQSWRQRLEHLQQAVAR
For B2, the binding result in assay [2] is listed as “no binding”.

B3: CEP250_(29.2) Ala2194Thr (domain or fragment, UniProt Q9BV73 1981-2281)
chain: EQHLLEQAELSRSLEASTATLQASLDACQAHSRQLEEALRIQEGEIQDQDLRYQEDVQQLQQALAQRDEELRHQQEREQLLEKSLAQRVQENMIQEKQNLGQEREEEEIRGLHQSVRELQLTLAQKEQEILELRETQQRNNLEALPHSHKTSPMEEQSLKLDSLEPRLQRELERLQAALRQTEAREIEWREKAQDLALSLAQTKASVSSLQEVTMFLQASVLERDSEQQRLQDELELTRRALEKERLHSPGATSTAELGSRGEQGVQLGEVSGVEAEPSPDGMEKQSWRQRLEHLQQAVAR
On to B3, for which the binding result in assay [3] is “no binding”.

B4: CEP250_(29.2) Leu2197Phe (domain or fragment, UniProt Q9BV73 1981-2281)
chain: EQHLLEQAELSRSLEASTATLQASLDACQAHSRQLEEALRIQEGEIQDQDLRYQEDVQQLQQALAQRDEELRHQQEREQLLEKSLAQRVQENMIQEKQNLGQEREEEEIRGLHQSVRELQLTLAQKEQEILELRETQQRNNLEALPHSHKTSPMEEQSLKLDSLEPRLQRELERLQAALRQTEAREIEWREKAQDLALSLAQTKASVSSLQEVAMFFQASVLERDSEQQRLQDELELTRRALEKERLHSPGATSTAELGSRGEQGVQLGEVSGVEAEPSPDGMEKQSWRQRLEHLQQAVAR
Take B4: in assay [3], the binding result is reported as “no binding”.

B5: CEP250 N-terminal domain (amino acids 1-362) (domain or fragment, UniProt Q9BV73 1-362)
chain: METRSPGLNNMKPQSLQLVLEEQVLALQQQMAENQAASWRKLKNSQEAQQRQATLVRKLQAKVLQYRSWCQELEKRLEATGGPIPQRWENVEEPNLDELLVRLEEEQQRCESLAEVNTQLRLHMEKADVVNKALREDVEKLTVDWSRARDELMRKESQWQMEQEFFKGYLKGEHGRLLSLWREVVTFRRHFLEMKSATDRDLMELKAEHVRLSGSLLTCCLRLTVGAQSREPNGSGRMDGREPAQLLLLLAKTQELEKEAHERSQELIQLKSQGDLEKAELQDRVTELSALLTQSQKQNEDYEKMIKALRETVEILETNHTELMEHEASLSRNAQEEKLSLQQVIKDITQVMVEEGDNIAQG
Turning to B5, the binding result in assay [4] is “no binding (tested: with WDB001)”.

B6: CEP250 N-terminal domain (1 to 362) (domain or fragment, UniProt Q9BV73 1-362)
chain: METRSPGLNNMKPQSLQLVLEEQVLALQQQMAENQAASWRKLKNSQEAQQRQATLVRKLQAKVLQYRSWCQELEKRLEATGGPIPQRWENVEEPNLDELLVRLEEEQQRCESLAEVNTQLRLHMEKADVVNKALREDVEKLTVDWSRARDELMRKESQWQMEQEFFKGYLKGEHGRLLSLWREVVTFRRHFLEMKSATDRDLMELKAEHVRLSGSLLTCCLRLTVGAQSREPNGSGRMDGREPAQLLLLLAKTQELEKEAHERSQELIQLKSQGDLEKAELQDRVTELSALLTQSQKQNEDYEKMIKALRETVEILETNHTELMEHEASLSRNAQEEKLSLQQVIKDITQVMVEEGDNIAQG
With B6, in assay [5], the binding entry is “no binding”.

B7: CEP250 intermediate domain I2 (1,219 to 2,124) (domain or fragment, UniProt Q9BV73 1219-2124)
chain: DQNGARSLFKRGPLLTALSAEAVASALHKLHQDLWKTQQTRDVLRDQVQKLEERLTDTEAEKSQVHTELQDLQRQLSQNQEEKSKWEGKQNSLESELMELHETMASLQSRLRRAELQRMEAQGERELLQAAKENLTAQVEHLQAAVVEARAQASAAGILEEDLRTARSALKLKNEEVESERERAQALQEQGELKVAQGKALQENLALLTQTLAEREEEVETLRGQIQELEKQREMQKAALELLSLDLKKRNQEVDLQQEQIQELEKCRSVLEHLPMAVQEREQKLTVQREQIRELEKDRETQRNVLEHQLLELEKKDQMIESQRGQVQDLKKQLVTLECLALELEENHHKMECQQKLIKELEGQRETQRVALTHLTLDLEERSQELQAQSSQIHDLESHSTVLARELQERDQEVKSQREQIEELQRQKEHLTQDLERRDQELMLQKERIQVLEDQRTRQTKILEEDLEQIKLSLRERGRELTTQRQLMQERAEEGKGPSKAQRGSLEHMKLILRDKEKEVECQQEHIHELQELKDQLEQQLQGLHRKVGETSLLLSQREQEIVVLQQQLQEAREQGELKEQSLQSQLDEAQRALAQRDQELEALQQEQQQAQGQEERVKEKADALQGALEQAHMTLKERHGELQDHKEQARRLEEELAVEGRRVQALEEVLGDLRAESREQEKALLALQQQCAEQAQEHEVETRALQDSWLQAQAVLKERDQELEALRAESQSSRHQEEAARARAEALQEALGKAHAALQGKEQHLLEQAELSRSLEASTATLQASLDACQAHSRQLEEALRIQEGEIQDQDLRYQEDVQQLQQALAQRDEELRHQQEREQLLEKSLAQRVQENMIQEKQNLGQEREEEEIRGLHQSVRELQLTLAQKEQEILELRETQQRNNLEA
Regarding B7, the binding entry in assay [5] is “no binding”.

B8: CEP250 intermediate domain I1 (380 to 1,200) (domain or fragment, UniProt Q9BV73 380-1200)
chain: DYQDADKALTLVRSVLTRRRQAVQDLRQQLAGCQEAVNLLQQQHDQWEEEGKALRQRLQKLTGERDTLAGQTVDLQGEVDSLSKERELLQKAREELRQQLEVLEQEAWRLRRVNVELQLQGDSAQGQKEEQQEELHLAVRERERLQEMLMGLEAKQSESLSELITLREALESSHLEGELLRQEQTEVTAALARAEQSIAELSSSENTLKTEVADLRAAAVKLSALNEALALDKVGLNQQLLQLEEENQSVCSRMEAAEQARNALQVDLAEAEKRREALWEKNTHLEAQLQKAEEAGAELQADLRDIQEEKEEIQKKLSESRHQQEAATTQLEQLHQEAKRQEEVLARAVQEKEALVREKAALEVRLQAVERDRQDLAEQLQGLSSAKELLESSLFEAQQQNSVIEVTKGQLEVQIQTVTQAKEVIQGEVRCLKLELDTERSQAEQERDAAARQLAQAEQEGKTALEQQKAAHEKEVNQLREKWEKERSWHQQELAKALESLEREKMELEMRLKEQQTEMEAIQAQREEERTQAESALCQMQLETEKERVSLLETLLQTQKELADASQQLERLRQDMKVQKLKEQETTGILQTQLQEAQRELKEAARQHRDDLAALQEESSSLLQDKMDLQKQVEDLKSQLVAQDDSQRLVEQEVQEKLRETQEYNRIQKELEREKASLTLSLMEKEQRLLVLQEADSIRQQELSALRQDMQEAQGEQKELSAQMELLRQEVKEKEADFLAQEAQLLEELEASHITEQQLRASLWAQEAKAAQLQLRLRSTESQLEALAAEQQPGNQAQAQAQLASLYSALQQALGSVCESR
With B8, in assay [5], the binding result is recorded as “no binding”.
